Laboratory results as given in PubChem BioAssay AID248 (DTP/NCI, 2004).
The list shows only some results of the screen, not a fair sample: it is rich in T/C values a quarter to a half above the control, in often repeated tests (any T/C) and in doses without a T/C. Further doses and runs are listed elsewhere. T/C is the treated group as % of the vehicle group. Some doses have a count of surviving animals in place of a T/C: the source holds a T/C of zero for them, seemingly a mark for toxic or unscored doses. Some survivor counts are full or nearly so, which does not show that the dose was tolerated: survival well below the control is almost never listed, so the zero probably covers shortened survival too. Survivors were counted at the toxicity check, usually on the fifth day, unless a day is given; later deaths do not show. Schedule codes are those of the source, taken here to give the interval after Q, in days (D) or hours (H), and the number of doses after X. Some entries hold several experiments; their values stand side by side, smallest first. Some schedule codes hold Z or #, which are not explained here. Signs of the kind (2×) stand for listed records that agree. Where survival is the endpoint, this PubChem deposit counts one and a half times the control or more as active, and values a quarter to a half above the control carry no call in these data; other NCI protocols may use other cut-offs. Some T/C values are followed by the survivors on the day toxicity was checked, most often the fifth; without a count, all were alive then.

Test system: L1210 leukemia ip in BDF1 mice, survival T/C
Experiment: NCI In Vivo Anticancer Drug Screen. Data for tumor model L1210 Leukemia (intraperitoneal) in B6D2F1 (BDF1) mice
Details: T/C endpoint: mean survival time, higher T/C = longer survival
[1] = dose: 200.0 mg/kg/injection, schedule: Q01DX001 (ip), vehicle: saline
[2] = dose: 400.0 mg/kg/injection, schedule: Q01DX001 (ip), vehicle: saline
[3] = dose: 400.0 mg/kg/injection, schedule: Q01DX009 (ip), vehicle: saline with Tween-80
[4] = dose: 400.0 mg/kg/injection, schedule: Q04DX003 (ip), vehicle: saline
[5] = dose: 200.0 mg/kg/injection, schedule: Q01DX009 (ip), vehicle: saline with Tween-80
[6] = dose: 100.0 mg/kg/injection, schedule: Q01DX001 (ip), vehicle: saline

For COc1cc2c(cc1OC)C(CCCCCCCC1NCCc3cc(OC)c(OC)cc31)NCC2 (stereo not given), the survivor count (dose: 32.0 mg/kg/injection, schedule: Q01DX015 (ip), vehicle: carboxymethylcellulose (CMC)) was 1 of 6, the survivor count (dose: 64.0 mg/kg/injection, schedule: Q01DX015 (ip), vehicle: carboxymethylcellulose (CMC)) was 3 of 6 and the survivor count [1] was 1 of 4. For the same compound, the survivor count [2] was 0 of 4.
For CN(C)CC1CCCCC1=O (stereo not given), the survivor count [3] was 1 of 6.
In the case of COc1ccc(C(SCC(N)C(=O)O)(c2ccccc2)c2ccccc2)cc1 (stereo not given), the T/C (dose: 11.0 mg/kg/injection, schedule: Q01DX009 (ip), vehicle: saline) is reported as 134 % of control, the survivor count (dose: 40.0 mg/kg/injection, schedule: Q01DX009 (ip), vehicle: saline) is reported as 4 of 6 and the survivor count (dose: 75.0 mg/kg/injection, schedule: Q01DX009 (ip), vehicle: saline) is reported as 4 of 6. The survivor count (dose: 150.0 mg/kg/injection, schedule: Q01DX009 (ip), vehicle: saline) was 0 of 6, the survivor count (dose: 200.0 mg/kg/injection, schedule: Q01DX009 (ip), vehicle: saline) was 6 of 6 and the survivor count (dose: 300.0 mg/kg/injection, schedule: Q01DX009 (ip), vehicle: saline) was 0 of 6 and 5 of 6. For the same compound, the survivor count (dose: 400.0 mg/kg/injection, schedule: Q01DX009 (ip), vehicle: saline) was 4 of 6.
With C=CCOCC(O)C[As](=O)(O)c1ccc(OC)cc1 (stereo not given) the survivor count (dose: 50.0 mg/kg/injection, schedule: Q04DX003 (ip), vehicle: saline with Tween-80) was 1 of 6, the survivor count (dose: 100.0 mg/kg/injection, schedule: Q04DX003 (ip), vehicle: saline with Tween-80) was 0 of 6 (2×) and the survivor count (dose: 200.0 mg/kg/injection, schedule: Q04DX003 (ip), vehicle: saline with Tween-80) was 0 of 6. The survivor count (dose: 400.0 mg/kg/injection, schedule: Q04DX003 (ip), vehicle: saline with Tween-80) was 0 of 6.
For [CH3][Sb]1([CH3])([I])[CH2]CCC[CH2]1, the survivor count [4] was 2 of 3.
With O=NN(CCCl)C(=O)NC(=O)NCCCl the T/C (dose: 4.5 mg/kg/injection, schedule: Q01DX001 (ip), vehicle: carboxymethylcellulose (CMC)) was 136 % of control, the T/C (dose: 6.0 mg/kg/injection, schedule: Q01DX001 (ip), vehicle: carboxymethylcellulose (CMC)) was 126 % of control and the T/C (dose: 9.0 mg/kg/injection, schedule: Q01DX001 (ip), vehicle: carboxymethylcellulose (CMC)) was 147 % of control. For the same compound, the T/C (dose: 26.0 mg/kg/injection, schedule: Q01DX001 (ip), vehicle: carboxymethylcellulose (CMC)) was 125 % of control, the survivor count (dose: 40.0 mg/kg/injection, schedule: Q01DX001 (ip), vehicle: carboxymethylcellulose (CMC)) was 6 of 6 and the survivor count (dose: 60.0 mg/kg/injection, schedule: Q01DX001 (ip), vehicle: carboxymethylcellulose (CMC)) was 3 of 6. For the same compound, the survivor count (dose: 93.0 mg/kg/injection, schedule: Q01DX001 (ip), vehicle: carboxymethylcellulose (CMC)) was 0 of 6, the survivor count (dose: 187.0 mg/kg/injection, schedule: Q01DX001 (ip), vehicle: carboxymethylcellulose (CMC)) was 0 of 6 and the survivor count (dose: 375.0 mg/kg/injection, schedule: Q01DX001 (ip), vehicle: carboxymethylcellulose (CMC)) was 0 of 6.
With O=c1cc(-c2ccccc2)nc(SCc2ccccc2Cl)[nH]1 the survivor count (dose: 50.0 mg/kg/injection, schedule: Q01DX Z (ip), vehicle: methylcellulose (MC)) was 6 of 6, the survivor count (dose: 100.0 mg/kg/injection, schedule: Q01DX Z (ip), vehicle: methylcellulose (MC)) was 6 of 6 and the survivor count (dose: 200.0 mg/kg/injection, schedule: Q01DX Z (ip), vehicle: methylcellulose (MC)) was 6 of 6.
For Clc1ccc2nnnn2n1, the T/C (dose: 100.0 mg/kg/injection, schedule: Q01DX009 (ip), vehicle: saline with Tween-80) was 125 % of control, the T/C [5] was 136 % of control [5 of 6 alive] and the T/C (dose: 250.0 mg/kg/injection, schedule: Q04DX003 (ip), vehicle: saline) was 127 % of control. For the same compound, the survivor count [3] was 0 of 6.
For C[n+]1ccc(/C=C/c2csc3ccccc23)cc1, the survivor count (dose: 80.0 mg/kg/injection, schedule: Q01DX001 (ip), vehicle: carboxymethylcellulose (CMC)) was 2 of 4, the survivor count (dose: 100.0 mg/kg/injection, schedule: Q01DX001 (ip), vehicle: carboxymethylcellulose (CMC)) was 2 of 4 and the survivor count (dose: 200.0 mg/kg/injection, schedule: Q01DX001 (ip), vehicle: carboxymethylcellulose (CMC)) was 0 of 4. The survivor count (dose: 400.0 mg/kg/injection, schedule: Q01DX001 (ip), vehicle: carboxymethylcellulose (CMC)) was 0 of 4.
In the case of COC(=O)N/N=C/c1ccccc1Cl, the survivor count (dose: 400.0 mg/kg/injection, schedule: Q01DX009 (ip), vehicle: Klucel (hydroxypropylcellulose) (HPC)) is reported as 2 of 6.
CCCCCc1nc2c(c3c1CCCC3)CCCC2 was tested, and the survivor count (dose: 300.0 mg/kg/injection, schedule: Q01DX001 (ip), vehicle: other) was 0 of 6.
With COc1cc(/C=N/NC(=O)CNC(=O)NCc2ccccc2)ccc1O the survivor count [5] was 3 of 3.
In the case of CC/C(Cc1ccc(O)cc1)=N\N=C(N)N, the survivor count (dose: 120.0 mg/kg/injection, schedule: Q01DX Z (ip), vehicle: methylcellulose (MC)) is reported as 3 of 6, the survivor count (dose: 120.0 mg/kg/injection, schedule: Q01DX Z (oral), vehicle: methylcellulose (MC)) is reported as 4 of 6 and the survivor count (dose: 375.0 mg/kg/injection, schedule: Q01DX Z (oral), vehicle: methylcellulose (MC)) is reported as 4 of 7. For the same compound, the survivor count (dose: 500.0 mg/kg/injection, schedule: Q01DX Z (oral), vehicle: methylcellulose (MC)) was 5 of 7 and the survivor count (dose: 625.0 mg/kg/injection, schedule: Q01DX Z (oral), vehicle: methylcellulose (MC)) was 4 of 7.
In the case of CC(C)=CCC/C(C)=C\CN=C1C=CC(=O)O1, the survivor count (dose: 100.0 mg/kg/injection, schedule: Q01DX009 (ip), vehicle: saline + alcohol) is reported as 1 of 6, the survivor count (dose: 200.0 mg/kg/injection, schedule: Q04DX003 (ip), vehicle: saline) is reported as 1 of 6 and the survivor count [4] is reported as 0 of 6.
CN(CCCCN(C)CCOS(C)(=O)=O)CCOS(C)(=O)=O was tested, and the T/C (dose: 0.4 mg/kg/injection, schedule: Q01DX015 (ip), vehicle: saline) was 127 % of control, the T/C (dose: 0.8 mg/kg/injection, schedule: Q01DX015 (ip), vehicle: saline) was 140 % of control and the T/C (dose: 1.7 mg/kg/injection, schedule: Q01DX015 (ip), vehicle: saline) was 149 % of control. The T/C (dose: 2.6 mg/kg/injection, schedule: Q01DX015 (ip), vehicle: saline) was 149 % of control, the T/C (dose: 4.0 mg/kg/injection, schedule: Q01DX015 (ip), vehicle: saline) was 142 % of control and the T/C (dose: 5.5 mg/kg/injection, schedule: Q01DX001 (ip), vehicle: saline) was 134 % of control. The survivor count (dose: 6.0 mg/kg/injection, schedule: Q01DX015 (ip), vehicle: saline) was 6 of 6, the T/C (dose: 12.5 mg/kg/injection, schedule: Q01DX001 (ip), vehicle: saline) was 142 % of control and the survivor count (dose: 50.0 mg/kg/injection, schedule: Q01DX001 (ip), vehicle: saline) was 1 of 4. For the same compound, the survivor count [6] was 0 of 4, the survivor count [1] was 0 of 4 and the survivor count [2] was 0 of 4.
In the case of Cn1cc(Br)c2ccccc2c1=O, the survivor count (dose: 200.0 mg/kg/injection, schedule: Q04DX003 (ip), vehicle: Klucel (hydroxypropylcellulose) (HPC)) is reported as 2 of 6 and the survivor count (dose: 400.0 mg/kg/injection, schedule: Q04DX003 (ip), vehicle: Klucel (hydroxypropylcellulose) (HPC)) is reported as 0 of 6.
For CC[N+](C)(C)CCOC(=O)C1C2CC3OC(=O)C1C3C2 (stereo not given), the survivor count [4] was 0 of 4.
CNc1cc(N2CCCC2)ccn1 was tested, and the survivor count (dose: 20.0 mg/kg/injection, schedule: Q01DX001 (ip), vehicle: saline) was 1 of 6, the survivor count (dose: 40.0 mg/kg/injection, schedule: Q01DX001 (ip), vehicle: saline) was 0 of 6 and the survivor count (dose: 80.0 mg/kg/injection, schedule: Q01DX001 (ip), vehicle: saline) was 0 of 6. The survivor count [6] was 0 of 6, the survivor count [1] was 0 of 6 and the survivor count [2] was 0 of 6.
For CC(=O)Nc1nnc(SC(C)=O)s1, the survivor count (dose: 200.0 mg/kg/injection, schedule: Q01DX009 (ip), vehicle: Klucel (hydroxypropylcellulose) (HPC)) was 6 of 6.
